From ChEMBL document CHEMBL3988442, “University of Dundee, Small-Polar-MMV Screening Library” (2021).

Each number is a percent effect as filed. The record does not define 0% and 100%; most values in the screen are far below 50% and negative numbers occur (in some assays of this library far below -100). This is an unselected part of the compounds tested.

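Whole-parasite assay of Trypanosoma brucei over 72 hours; the read-out is not stated. Concentration: 30 µM. Higher reads as stronger inhibition (inferred: compounds with an IC50 in retests scored well above the rest). Values scatter widely below zero; nearly all retest evidence comes from the higher of the two concentrations used. Of about 64,000 compounds tested this way, about 940 (1.5%) reached 50% or more in at least one test.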

SMILES	percent effect
O=C(Nc1cc[nH]n1)c1ccc(COCC(F)(F)F)cc1	-18.88
O=C(O)C(F)(F)F.[H][C@@]12CN(C(=O)C3CC3)C[C@]1([H])OCCN2CC(=O)NC	-16.94
Cc1cccc(C(=O)N2Cc3ccccc3C3(CCN(C)CC3)C2)n1	7.619
COc1ccc2cc(CN(C)C(C)c3nc(C4CC4)no3)ccc2c1 (stereo not drawn)	-4.689
O=C(Cc1cccc(F)c1F)N1CCOC(c2cccc(O)c2)C1 (stereo not drawn)	-24.04
Cc1cc(C)n(CC2CCCN2CC(=O)N(C)Cc2cnn(C)c2)n1 (stereo not drawn)	0.765
COC1CCN(CCNC(=O)NC(C)c2ccc(F)c(F)c2)CC1 (stereo not drawn)	-33.8
CCc1nnc(SCc2cc(=O)n3c4c(sc3n2)CCCC4)[nH]1	2.863
CC1(C)CN=C(N2CCN(CCCN3CCOCC3)CC2)S1	-8.806
[H][C@]12CC[C@]([H])(CN(C(=O)CCn3cc(Cl)cn3)C1)N(CCOC)C2	4.772
O=C(O)C(F)(F)F.O=C(O)C(F)(F)F.O=C(c1cccnc1)N1CCn2nnc(COc3cccnc3)c2C1	-14.55
CC(C)C(C#N)N1CCN(C(=O)c2cc(-c3ccccn3)no2)CC1 (stereo not drawn)	-24.77
CC(C)N1CCOCC2(CN(Cc3ccco3)CCO2)C1 (stereo not drawn)	-13.06
Cc1ccc(-c2nc(CNCCn3cccn3)cs2)o1	-6.297
COc1ccc(F)cc1C[S+]([O-])CC(=O)NCc1ccccc1 (stereo not drawn)	-15.4
[H][C@]12CCCCN1CCC[C@H]2CNC(=O)Cn1ccc2cc(C)ccc21	41.64
CNC(=O)[C@@H](c1ccccc1OC)N1CCC[C@H]1C(=O)N1CCC1.Cl	6.871
CCOc1ccccc1C(=O)N(C)C(C)c1ccc(S(C)(=O)=O)cc1 (stereo not drawn)	-27.76
Cc1cccc(Nc2cc(C3CCCN(CC(N)=O)C3)ccn2)n1.O=CO.O=CO (stereo not drawn)	-0.9423
c1cnnc(N2CCCC2CNc2ncnc3ccsc23)c1 (stereo not drawn)	5.64
Cc1ccc(C2CCCN(S(=O)(=O)N3CCOCC3)C2)nc1 (stereo not drawn)	1.4
[H][C@@]12CNCC[C@]1(O)CCN(c1nccnc1N(C)C)C2	-12.84
Cc1cc(C)c2nc(CN(C)C(C)c3ccncn3)cc(O)c2c1 (stereo not drawn)	3.079
COc1ccc2c(c1)nc1n2[C@@H](CNC(=O)c2ccccn2)COC1	-12.62
CCNC(=O)[C@@H]1C[C@H](NC(=O)c2cncnc2C)CN1CCCSC	22.52
N#CC1(NC(=O)Cn2nnc(-c3cc4ccccc4o3)n2)CCCC1	-22.83
Cc1nc(NCCc2ccc(Cl)cc2)cc(C(=O)N2CCOCC2)n1	21.89
[H][C@@]12CCN(S(C)(=O)=O)[C@]1([H])CC[C@@H](c1nc(C)no1)O2	-31.63
CN(C)C(=O)c1cnn2c1OCCC2	5.283
Cc1ccc(CN2CCN(c3ccc(F)cn3)CC2=O)cc1C	9.677
CC1Oc2c(cccc2C(=O)N2CCN(CC(C)(C)O)CC2)NC1=O (stereo not drawn)	-2.808
CC(C)n1ncc2c1NC(=O)C(C#N)C21CCCC1 (stereo not drawn)	-37.58
Cc1cc(C)c(CNC(=O)N2CCCC2C(N)=O)c(=O)[nH]1 (stereo not drawn)	-2.802
O=C(O)C(F)(F)F.[H][C@]12CCN(S(=O)(=O)c3ccccc3)CC[C@@]1([H])S(=O)(=O)CCN2CC(C)C	-19.38
COc1ccc(CCCC(=O)NCc2c(C)noc2C)cc1F	-11.5
CCCn1nnnc1COc1cc(OC)ccc1C(N)=O	-17.48
O=C(CN1CCCCC1Cn1cccn1)NC1CCN(C2CC2)CC1 (stereo not drawn)	-6.463
CSCC(CCO)Nc1nc(C(F)F)nc2ccccc12 (stereo not drawn)	6.695
Cc1cnn(CC2CN(c3nnc(C)c(C)c3C#N)CCO2)c1 (stereo not drawn)	5.224
CC(C)(C)c1noc(CN2CCCC(CNS(N)(=O)=O)C2)n1 (stereo not drawn)	-9.591
CC(=O)N1CCC(Cc2cccc(-c3c(C)noc3C)n2)C1 (stereo not drawn)	-19.66
CC(C)OCc1noc(C2CCCOC2)n1 (stereo not drawn)	-3.428
CN(C)c1ncccc1CNC(=O)N1CCCC1c1ccsc1 (stereo not drawn)	17.53
CCS(=O)(=O)N1CCCc2ccc(NC(=O)Cc3ccc(F)cc3)cc21	-25.51
O=C(O)C(F)(F)F.c1cc(-c2ccc3c(c2)CCC32CCN(c3nncs3)CC2)ccn1	-16.74
O=c1c(NCCNCCO)c(N2CCN(c3ccc(F)cc3)CC2)c1=O	-16.29
CC1CCc2nc(O)c(C(=O)NCCc3cccs3)cc2C1 (stereo not drawn)	-1.15
CCN(c1ccccc1)S(=O)(=O)c1cc(C(=O)O)cc2c1CCC2	-10.77
O=C(CC1CCCC1)N1CCCC1c1nc(O)cc(-c2ccccn2)n1 (stereo not drawn)	-1.04
COCc1nc(C(=O)OCC2CCN(c3ccccc3)C2)cs1 (stereo not drawn)	-21.5
Cc1ccccc1-c1noc(CN2CCC(N3CCNC3=O)CC2)n1	-6.713
CNC(=O)C1(Cc2cc(C(C)C)no2)CCN(Cc2cccnc2)C1 (stereo not drawn)	11.16
CN(C)CCN(C)S(=O)(=O)CC1CCOCC1	-22.93
O=C(CCc1ccccc1)Nc1ncccc1OC(F)F	-5.263
CCOc1cccc(C(C)NC(=O)N2CCC(C(N)=O)CC2)c1 (stereo not drawn)	-7.165
COc1ccc(NC(=O)N2CCCC2c2ccco2)cc1OC (stereo not drawn)	-4.448
CC[C@H]1CN(S(=O)(=O)c2ccccc2)CC[C@H]1CC(=O)O	-45.02
CCN(CC)c1ccc(NC(=O)N2CCc3sccc3C2)cn1	-0.2826
Cc1cc(C)n2ncc(CN3CCC(n4cc(CCO)nn4)CC3)c2n1	4.38
C[C@]1(O)CN(Cc2ncc[nH]2)CC[C@@H]1Oc1cccc(F)c1	-16.29
Cc1cnn(CCNCc2cc(=O)n3cc(Cl)ccc3n2)c1	-26.01
CCNc1ncc(CN2C[C@@H](C(=O)O)[C@H](C3CC3)C2)cn1	10.14
Cc1cncc(C(=O)N2CCOc3nc(C)ccc32)c1	-21.57
Cc1ccc(CN2CCC3(CC2)C(=O)NCCN3CC2CC2)o1	-23.6
CC(NCc1ccccc1Cl)c1ccc(OCC(=O)NC2CC2)cc1 (stereo not drawn)	11.41
COc1cccc(CC2CN(C(=O)c3ccnn3C)CCO2)c1 (stereo not drawn)	-38.43
CN(C)CC1(O)CCN(S(=O)(=O)c2ccc(F)cc2)C1 (stereo not drawn)	-18.54
CCc1ccc(CNC(=O)CCNS(=O)(=O)c2cn(C)c(C)n2)s1	-15.95
O=C(Nc1ccc2c(c1)OCO2)N1CCN(CCn2ccnc2)CC1	-18.85